{"source": "PubChem BioAssay AID1508597 (Cure First, 2020)", "purpose": "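Knock-downs altering ovarian cancer cell survival with or without PARP inhibitor rucaparib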 (primary screen)", "system": "human ovarian carcinoma lines grown from tumours: OCI-P5x (papillary serous) and OCI-C5x (clear cell)", "reagents": "siRNA pool against human genes, 1.25 pmol siRNA per well", "duration": "72 h or 96 h, depending on the cell culture", "challenge": "rucaparib 20 µM (about IC30) or vehicle, present until read-out", "rucaparib or vehicle": "Rucaparib", "cell line": "OCI-C5x (clear cell)", "measurement": "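ATP luminescence measured at 72 or 96 h according to the culture, then normalised and expressed as percent viability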", "direction": "viability, normalised: higher = more viable cells remaining", "hit rule": "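a well counts as a hit if its normalised viability is under 80 percent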", "meaning of the calls": "active = viability under 80%; inactive = viability 80% or more", "note": "This is an unselected part of the about 2,100 reagents, in one setting of the screen. 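Calls flag viability under 80% in either arm, not effects specific to rucaparib; the reference for percent is not stated.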 Unmarked entries are inactive. Some reagents were tested in more than one well and are listed for each. Not given: the 100% reference."}
{"target gene": "TDRD9 (tudor domain containing 9)", "PubChem SID": "SID405526548", "technical replicate": "1", "viability, normalised (%)": "56.6 (active)"}
{"target gene": "TDRD9 (tudor domain containing 9)", "PubChem SID": "SID405526548", "technical replicate": "2", "viability, normalised (%)": "59.6 (active)"}
{"target gene": "TDRD9 (tudor domain containing 9)", "PubChem SID": "SID405526548", "technical replicate": "3", "viability, normalised (%)": "48.6 (active)"}
{"target gene": "STK31 (serine/threonine kinase 31)", "PubChem SID": "SID405526502", "technical replicate": "1", "viability, normalised (%)": "73.7 (active)"}
{"target gene": "STK31 (serine/threonine kinase 31)", "PubChem SID": "SID405526502", "technical replicate": "1", "viability, normalised (%)": "49.2 (active)"}
{"target gene": "STK31 (serine/threonine kinase 31)", "PubChem SID": "SID405526502", "technical replicate": "2", "viability, normalised (%)": "68.9 (active)"}
{"target gene": "STK31 (serine/threonine kinase 31)", "PubChem SID": "SID405526502", "technical replicate": "2", "viability, normalised (%)": "77.7 (active)"}
{"target gene": "STK31 (serine/threonine kinase 31)", "PubChem SID": "SID405526502", "technical replicate": "3", "viability, normalised (%)": "56.9 (active)"}
{"target gene": "STK31 (serine/threonine kinase 31)", "PubChem SID": "SID405526502", "technical replicate": "3", "viability, normalised (%)": "63 (active)"}
{"target gene": "PDE11A (phosphodiesterase 11A)", "PubChem SID": "SID405526681", "technical replicate": "1", "viability, normalised (%)": "59.8 (active)"}
{"target gene": "PDE11A (phosphodiesterase 11A)", "PubChem SID": "SID405526681", "technical replicate": "2", "viability, normalised (%)": "52.6 (active)"}
{"target gene": "PDE11A (phosphodiesterase 11A)", "PubChem SID": "SID405526681", "technical replicate": "3", "viability, normalised (%)": "45.3 (active)"}
{"target gene": "BAHD1 (bromo adjacent homology domain containing 1)", "PubChem SID": "SID405528011", "technical replicate": "1", "viability, normalised (%)": "52.9 (active)"}
{"target gene": "BAHD1 (bromo adjacent homology domain containing 1)", "PubChem SID": "SID405528011", "technical replicate": "2", "viability, normalised (%)": "47.1 (active)"}
{"target gene": "BAHD1 (bromo adjacent homology domain containing 1)", "PubChem SID": "SID405528011", "technical replicate": "3", "viability, normalised (%)": "39 (active)"}
{"target gene": "CSNK1D (casein kinase 1 delta)", "PubChem SID": "SID405527443", "technical replicate": "1", "viability, normalised (%)": "45.4 (active)"}
{"target gene": "CSNK1D (casein kinase 1 delta)", "PubChem SID": "SID405527443", "technical replicate": "1", "viability, normalised (%)": 103}
{"target gene": "CSNK1D (casein kinase 1 delta)", "PubChem SID": "SID405527443", "technical replicate": "2", "viability, normalised (%)": 87.9}
{"target gene": "CSNK1D (casein kinase 1 delta)", "PubChem SID": "SID405527443", "technical replicate": "2", "viability, normalised (%)": "48 (active)"}
{"target gene": "CSNK1D (casein kinase 1 delta)", "PubChem SID": "SID405527443", "technical replicate": "3", "viability, normalised (%)": "38.6 (active)"}
{"target gene": "CSNK1D (casein kinase 1 delta)", "PubChem SID": "SID405527443", "technical replicate": "3", "viability, normalised (%)": 88.6}
{"target gene": "AKT3 (AKT serine/threonine kinase 3)", "PubChem SID": "SID405527451", "technical replicate": "1", "viability, normalised (%)": "63.5 (active)"}
{"target gene": "AKT3 (AKT serine/threonine kinase 3)", "PubChem SID": "SID405527451", "technical replicate": "2", "viability, normalised (%)": "57.2 (active)"}
{"target gene": "AKT3 (AKT serine/threonine kinase 3)", "PubChem SID": "SID405527451", "technical replicate": "3", "viability, normalised (%)": "78.8 (active)"}
{"target gene": "CHD5 (chromodomain helicase DNA binding protein 5)", "PubChem SID": "SID405528104", "technical replicate": "1", "viability, normalised (%)": "47.1 (active)"}
{"target gene": "CHD5 (chromodomain helicase DNA binding protein 5)", "PubChem SID": "SID405528104", "technical replicate": "2", "viability, normalised (%)": "44.8 (active)"}
{"target gene": "CHD5 (chromodomain helicase DNA binding protein 5)", "PubChem SID": "SID405528104", "technical replicate": "3", "viability, normalised (%)": "46.1 (active)"}
{"target gene": "ARL8A (ARF like GTPase 8A)", "PubChem SID": "SID405527982", "technical replicate": "1", "viability, normalised (%)": "57.3 (active)"}
{"target gene": "ARL8A (ARF like GTPase 8A)", "PubChem SID": "SID405527982", "technical replicate": "2", "viability, normalised (%)": "72.9 (active)"}
{"target gene": "ARL8A (ARF like GTPase 8A)", "PubChem SID": "SID405527982", "technical replicate": "3", "viability, normalised (%)": "64.9 (active)"}
{"target gene": "CDC5L (cell division cycle 5 like)", "PubChem SID": "SID405528082", "technical replicate": "1", "viability, normalised (%)": "54.7 (active)"}
{"target gene": "CDC5L (cell division cycle 5 like)", "PubChem SID": "SID405528082", "technical replicate": "2", "viability, normalised (%)": "50.4 (active)"}
{"target gene": "CDC5L (cell division cycle 5 like)", "PubChem SID": "SID405528082", "technical replicate": "3", "viability, normalised (%)": "48.4 (active)"}
{"target gene": "TRMT6 (tRNA methyltransferase 6 non-catalytic subunit)", "PubChem SID": "SID405526413", "technical replicate": "1", "viability, normalised (%)": "47.6 (active)"}
{"target gene": "TRMT6 (tRNA methyltransferase 6 non-catalytic subunit)", "PubChem SID": "SID405526413", "technical replicate": "2", "viability, normalised (%)": "65.7 (active)"}
{"target gene": "TRMT6 (tRNA methyltransferase 6 non-catalytic subunit)", "PubChem SID": "SID405526413", "technical replicate": "3", "viability, normalised (%)": "71.7 (active)"}
{"target gene": "NLGN1 (neuroligin 1)", "PubChem SID": "SID405527075", "technical replicate": "1", "viability, normalised (%)": "28.9 (active)"}
{"target gene": "NLGN1 (neuroligin 1)", "PubChem SID": "SID405527075", "technical replicate": "2", "viability, normalised (%)": "24.8 (active)"}
{"target gene": "NLGN1 (neuroligin 1)", "PubChem SID": "SID405527075", "technical replicate": "3", "viability, normalised (%)": "31.3 (active)"}
{"target gene": "NHERF1 (NHERF family PDZ scaffold protein 1)", "PubChem SID": "SID405527317", "technical replicate": "1", "viability, normalised (%)": "33.2 (active)"}
{"target gene": "NHERF1 (NHERF family PDZ scaffold protein 1)", "PubChem SID": "SID405527317", "technical replicate": "2", "viability, normalised (%)": "19.6 (active)"}
{"target gene": "NHERF1 (NHERF family PDZ scaffold protein 1)", "PubChem SID": "SID405527317", "technical replicate": "3", "viability, normalised (%)": "28 (active)"}
